# The list shows a part of the results. The data scatter; read single values as rough.
# Chains of the proteins cited; added tags and fusions are not shown. Lines headed by an entry give the natural chain unless they say otherwise; changes in a name come on top. Residues count along the entry.
# UniProt Q03001, 396-416: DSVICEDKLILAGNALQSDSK
# UniProt Q9GZT9: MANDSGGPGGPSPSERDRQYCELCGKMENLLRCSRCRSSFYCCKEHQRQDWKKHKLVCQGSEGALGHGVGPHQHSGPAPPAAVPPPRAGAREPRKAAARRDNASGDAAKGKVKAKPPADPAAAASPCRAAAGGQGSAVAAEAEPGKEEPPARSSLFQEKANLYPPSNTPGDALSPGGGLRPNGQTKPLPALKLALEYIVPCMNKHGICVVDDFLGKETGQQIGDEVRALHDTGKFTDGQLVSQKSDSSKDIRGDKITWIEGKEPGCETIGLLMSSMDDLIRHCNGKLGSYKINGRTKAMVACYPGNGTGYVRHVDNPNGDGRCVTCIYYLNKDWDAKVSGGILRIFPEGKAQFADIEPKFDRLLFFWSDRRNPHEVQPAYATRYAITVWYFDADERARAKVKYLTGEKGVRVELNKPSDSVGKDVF
# UniProt Q7L2H7, 130-149: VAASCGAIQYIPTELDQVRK
# UniProt Q7Z2Z2, 453-476: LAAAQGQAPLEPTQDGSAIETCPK
# UniProt Q8NCM8: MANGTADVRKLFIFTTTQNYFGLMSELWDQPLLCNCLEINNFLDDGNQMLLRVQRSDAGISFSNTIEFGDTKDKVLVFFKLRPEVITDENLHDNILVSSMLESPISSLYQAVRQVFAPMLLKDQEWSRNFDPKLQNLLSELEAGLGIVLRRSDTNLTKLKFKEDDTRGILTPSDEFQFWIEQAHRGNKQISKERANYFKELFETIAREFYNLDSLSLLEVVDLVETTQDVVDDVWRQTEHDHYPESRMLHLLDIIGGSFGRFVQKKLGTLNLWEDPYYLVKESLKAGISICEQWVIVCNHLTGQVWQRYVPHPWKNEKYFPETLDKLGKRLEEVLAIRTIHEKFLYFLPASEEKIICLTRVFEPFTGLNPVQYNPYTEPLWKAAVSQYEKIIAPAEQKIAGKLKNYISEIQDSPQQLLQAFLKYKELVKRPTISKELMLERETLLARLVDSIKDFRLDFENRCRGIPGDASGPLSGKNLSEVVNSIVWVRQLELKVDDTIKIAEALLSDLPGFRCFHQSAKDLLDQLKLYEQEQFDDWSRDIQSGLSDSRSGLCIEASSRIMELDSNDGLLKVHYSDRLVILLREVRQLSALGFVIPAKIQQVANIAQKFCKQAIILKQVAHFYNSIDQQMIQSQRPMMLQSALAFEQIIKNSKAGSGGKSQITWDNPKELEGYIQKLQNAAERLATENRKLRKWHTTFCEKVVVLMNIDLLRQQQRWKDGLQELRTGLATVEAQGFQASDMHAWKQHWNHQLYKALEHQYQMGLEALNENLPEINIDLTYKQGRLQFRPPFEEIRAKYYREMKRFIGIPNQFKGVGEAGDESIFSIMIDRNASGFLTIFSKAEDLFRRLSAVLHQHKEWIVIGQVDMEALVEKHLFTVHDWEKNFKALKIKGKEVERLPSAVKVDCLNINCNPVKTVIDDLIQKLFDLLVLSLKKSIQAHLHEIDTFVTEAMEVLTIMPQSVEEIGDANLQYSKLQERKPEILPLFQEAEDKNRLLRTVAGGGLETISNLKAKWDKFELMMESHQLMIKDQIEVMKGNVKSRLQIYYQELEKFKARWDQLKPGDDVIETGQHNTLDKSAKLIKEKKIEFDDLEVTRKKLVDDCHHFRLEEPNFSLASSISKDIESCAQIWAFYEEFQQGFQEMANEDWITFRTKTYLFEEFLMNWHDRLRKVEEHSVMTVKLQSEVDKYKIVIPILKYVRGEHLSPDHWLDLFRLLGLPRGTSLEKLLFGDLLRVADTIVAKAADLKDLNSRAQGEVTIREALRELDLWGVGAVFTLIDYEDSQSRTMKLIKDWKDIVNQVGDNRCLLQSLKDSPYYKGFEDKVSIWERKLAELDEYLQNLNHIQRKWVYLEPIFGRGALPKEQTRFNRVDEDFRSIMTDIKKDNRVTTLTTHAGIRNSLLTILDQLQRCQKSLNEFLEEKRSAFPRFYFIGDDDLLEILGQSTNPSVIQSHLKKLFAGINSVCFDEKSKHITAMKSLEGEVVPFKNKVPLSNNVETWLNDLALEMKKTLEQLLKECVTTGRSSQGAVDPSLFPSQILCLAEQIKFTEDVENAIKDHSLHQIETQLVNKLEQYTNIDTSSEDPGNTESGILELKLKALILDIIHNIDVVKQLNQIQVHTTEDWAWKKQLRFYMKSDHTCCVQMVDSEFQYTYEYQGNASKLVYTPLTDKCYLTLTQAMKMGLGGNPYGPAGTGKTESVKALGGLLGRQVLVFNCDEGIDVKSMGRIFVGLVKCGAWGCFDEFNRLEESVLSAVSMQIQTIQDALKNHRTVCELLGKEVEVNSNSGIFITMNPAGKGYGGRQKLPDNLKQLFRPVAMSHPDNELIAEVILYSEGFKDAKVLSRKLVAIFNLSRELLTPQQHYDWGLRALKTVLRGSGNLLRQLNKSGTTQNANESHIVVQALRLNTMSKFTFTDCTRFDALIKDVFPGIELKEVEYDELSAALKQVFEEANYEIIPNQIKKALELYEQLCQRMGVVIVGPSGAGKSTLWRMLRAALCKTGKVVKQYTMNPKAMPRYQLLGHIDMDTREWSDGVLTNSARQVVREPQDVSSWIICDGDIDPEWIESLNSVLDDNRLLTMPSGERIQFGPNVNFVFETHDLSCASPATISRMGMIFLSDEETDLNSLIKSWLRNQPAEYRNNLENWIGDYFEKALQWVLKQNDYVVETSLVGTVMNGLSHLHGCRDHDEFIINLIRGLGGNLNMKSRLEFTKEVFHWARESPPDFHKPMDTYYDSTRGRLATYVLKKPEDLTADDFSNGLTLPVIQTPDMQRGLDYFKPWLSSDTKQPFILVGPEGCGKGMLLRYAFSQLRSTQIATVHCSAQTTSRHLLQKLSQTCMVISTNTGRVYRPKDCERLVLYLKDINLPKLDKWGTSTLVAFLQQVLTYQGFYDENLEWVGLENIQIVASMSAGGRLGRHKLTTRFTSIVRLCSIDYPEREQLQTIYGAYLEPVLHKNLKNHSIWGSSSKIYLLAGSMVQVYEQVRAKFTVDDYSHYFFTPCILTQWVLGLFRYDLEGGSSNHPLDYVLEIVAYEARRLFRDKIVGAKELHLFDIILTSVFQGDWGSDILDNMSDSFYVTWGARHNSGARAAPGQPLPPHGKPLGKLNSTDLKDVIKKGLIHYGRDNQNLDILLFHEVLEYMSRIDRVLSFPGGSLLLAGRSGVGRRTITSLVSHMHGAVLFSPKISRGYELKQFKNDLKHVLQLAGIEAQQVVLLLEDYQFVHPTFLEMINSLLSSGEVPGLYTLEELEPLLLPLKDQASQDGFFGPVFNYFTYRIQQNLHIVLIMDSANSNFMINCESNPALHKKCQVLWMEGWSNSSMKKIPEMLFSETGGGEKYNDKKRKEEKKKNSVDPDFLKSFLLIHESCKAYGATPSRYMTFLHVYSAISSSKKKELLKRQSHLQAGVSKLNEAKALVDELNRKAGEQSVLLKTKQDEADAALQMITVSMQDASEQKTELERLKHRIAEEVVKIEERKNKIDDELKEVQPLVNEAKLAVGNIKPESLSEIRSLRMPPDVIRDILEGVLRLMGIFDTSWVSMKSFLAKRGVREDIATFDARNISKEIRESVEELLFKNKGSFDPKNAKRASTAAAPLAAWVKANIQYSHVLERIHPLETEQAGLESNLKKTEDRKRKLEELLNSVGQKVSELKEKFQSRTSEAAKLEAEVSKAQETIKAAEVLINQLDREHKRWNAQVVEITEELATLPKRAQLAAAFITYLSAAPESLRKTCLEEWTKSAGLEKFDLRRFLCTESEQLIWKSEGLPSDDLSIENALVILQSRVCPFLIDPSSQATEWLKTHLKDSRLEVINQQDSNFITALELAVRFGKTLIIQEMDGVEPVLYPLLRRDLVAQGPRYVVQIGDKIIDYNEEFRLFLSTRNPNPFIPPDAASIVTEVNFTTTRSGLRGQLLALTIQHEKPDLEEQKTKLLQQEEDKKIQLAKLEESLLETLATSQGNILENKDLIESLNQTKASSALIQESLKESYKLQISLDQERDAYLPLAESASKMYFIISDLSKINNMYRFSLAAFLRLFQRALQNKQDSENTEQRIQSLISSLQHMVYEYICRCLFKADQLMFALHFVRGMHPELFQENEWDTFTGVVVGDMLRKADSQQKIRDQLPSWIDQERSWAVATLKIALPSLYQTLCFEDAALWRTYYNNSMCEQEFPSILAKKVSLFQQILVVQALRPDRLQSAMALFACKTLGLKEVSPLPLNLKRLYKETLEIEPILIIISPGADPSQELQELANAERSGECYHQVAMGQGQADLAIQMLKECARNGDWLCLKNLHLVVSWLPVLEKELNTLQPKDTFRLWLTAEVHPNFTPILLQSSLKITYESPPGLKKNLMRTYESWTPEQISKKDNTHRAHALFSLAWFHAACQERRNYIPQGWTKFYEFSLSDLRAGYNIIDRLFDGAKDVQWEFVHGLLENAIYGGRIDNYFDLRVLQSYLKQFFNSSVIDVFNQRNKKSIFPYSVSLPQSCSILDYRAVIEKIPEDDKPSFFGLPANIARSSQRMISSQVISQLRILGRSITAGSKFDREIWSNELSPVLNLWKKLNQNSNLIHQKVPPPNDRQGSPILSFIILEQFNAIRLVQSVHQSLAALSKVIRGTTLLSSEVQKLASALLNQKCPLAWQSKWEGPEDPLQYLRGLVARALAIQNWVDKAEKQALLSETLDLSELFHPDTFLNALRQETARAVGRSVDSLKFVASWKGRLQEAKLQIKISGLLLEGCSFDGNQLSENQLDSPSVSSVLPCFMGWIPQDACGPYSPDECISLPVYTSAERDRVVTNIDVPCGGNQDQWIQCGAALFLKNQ
# UniProt Q8NDI1, 663-686: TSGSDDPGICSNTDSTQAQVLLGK
# UniProt Q9UI10, 55-75: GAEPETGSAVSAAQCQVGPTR
# UniProt P51808: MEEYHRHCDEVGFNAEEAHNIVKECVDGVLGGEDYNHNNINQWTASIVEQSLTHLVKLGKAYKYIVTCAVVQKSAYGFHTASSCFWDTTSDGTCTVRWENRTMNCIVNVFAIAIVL
# UniProt Q96F86: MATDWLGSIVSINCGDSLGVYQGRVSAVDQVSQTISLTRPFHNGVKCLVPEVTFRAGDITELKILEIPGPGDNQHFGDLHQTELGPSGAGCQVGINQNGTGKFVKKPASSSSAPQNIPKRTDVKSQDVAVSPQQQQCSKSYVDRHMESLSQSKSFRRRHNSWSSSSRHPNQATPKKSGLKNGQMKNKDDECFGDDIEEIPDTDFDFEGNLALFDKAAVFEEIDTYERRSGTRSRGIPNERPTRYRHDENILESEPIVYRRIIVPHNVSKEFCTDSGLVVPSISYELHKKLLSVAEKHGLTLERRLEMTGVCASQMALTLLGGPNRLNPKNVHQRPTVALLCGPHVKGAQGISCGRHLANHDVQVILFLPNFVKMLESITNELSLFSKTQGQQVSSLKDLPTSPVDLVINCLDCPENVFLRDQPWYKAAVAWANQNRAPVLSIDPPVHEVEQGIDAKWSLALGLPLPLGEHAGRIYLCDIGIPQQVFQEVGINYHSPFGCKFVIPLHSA
# UniProt P55039: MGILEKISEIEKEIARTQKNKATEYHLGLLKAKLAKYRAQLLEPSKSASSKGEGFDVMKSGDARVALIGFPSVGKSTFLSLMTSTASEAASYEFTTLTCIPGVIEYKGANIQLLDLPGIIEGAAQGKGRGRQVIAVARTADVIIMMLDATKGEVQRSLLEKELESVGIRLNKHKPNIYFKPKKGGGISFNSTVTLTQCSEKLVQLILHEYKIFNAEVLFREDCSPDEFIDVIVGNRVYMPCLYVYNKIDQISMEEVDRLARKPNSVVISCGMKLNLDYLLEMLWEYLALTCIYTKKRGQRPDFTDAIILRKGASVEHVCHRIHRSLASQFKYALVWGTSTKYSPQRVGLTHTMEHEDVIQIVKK
# UniProt Q9UHF1: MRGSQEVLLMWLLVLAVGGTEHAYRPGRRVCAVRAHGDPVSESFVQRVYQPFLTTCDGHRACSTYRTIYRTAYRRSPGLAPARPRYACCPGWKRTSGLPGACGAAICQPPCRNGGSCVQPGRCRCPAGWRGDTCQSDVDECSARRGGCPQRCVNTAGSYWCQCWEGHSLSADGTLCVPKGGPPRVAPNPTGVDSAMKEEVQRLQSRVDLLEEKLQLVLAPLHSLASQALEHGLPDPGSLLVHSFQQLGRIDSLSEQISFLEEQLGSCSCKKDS
# Compound: ClCC(=O)N[C@H]1CCCc2ccccc12
# Assay: log2 mean competition ratio of IA-DTB cysteine labelling (DMSO/compound) (log2 ratio); higher = stronger cysteine engagement by compound
# Conditions: 50 µM; treatment time: 4 h; cell line lysate: HEK293T
# Protocol: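 IA-DTB competitive cysteine chemoproteomics in HEK293T RIPA lysate. Lysates were treated with compound 29 or 30 at 50 or 200 µM for 4 h, then IA-DTB (500 µM, 1 h), trypsin-digested, NeutrAvidin-enriched and analysed by diaPASEF. Competition ratio = intensity DMSO / intensity compound (n=4 treated, n=64 DMSO); binding: mean log2 CR ≥ 1 and p ≤ 0.05 plus QC filters. Target is the cysteine site.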
row,Target,log2 mean competition ratio
1,DYRK1A C312 (UniProt Q13627),0.125
2,ELF2 C348 (UniProt Q15723),0.191
3,EED C126,-0.586
4,DST C400 (UniProt Q03001),-0.379
5,EGLN1 C127 (UniProt Q9GZT9),0.0577
6,EIF4A1 C66,0.521
7,EIF3M C134 (UniProt Q7L2H7),-0.103
8,EDC4 C4 (UniProt Q6P2E9),-0.326
9,DTL C559 (UniProt Q9NZJ0),-0.129
10,EDRF1 C1019 (UniProt Q3B7T1),-0.0282
11,EFL1 C474 (UniProt Q7Z2Z2),-0.0467
12,DYNC2H1 C3778 (UniProt Q8NCM8),-0.311
13,EHBP1 C672 (UniProt Q8NDI1),-0.151
14,EIF2B4 C69 (UniProt Q9UI10),-0.0318
15,DYNLT3 C8 (UniProt P51808),-0.514
16,EIF2S3B C434,-0.262
17,EDC3 C137 (UniProt Q96F86),-0.123
18,DRG2 C319 (UniProt P55039),0.21
19,DYNC2H1 C1970 (UniProt Q8NCM8),-0.216
20,EGFL7 C56 (UniProt Q9UHF1),0.477

# Same assay, conditions: 200 µM; treatment time: 4 h; cell line lysate: HEK293T
row,Target,log2 mean competition ratio
1,DYRK1A C312 (UniProt Q13627),0.396
2,ELF2 C348 (UniProt Q15723),0.0813
3,EED C126,-0.218
4,DST C400 (UniProt Q03001),-0.166
5,EGLN1 C127 (UniProt Q9GZT9),0.197
6,EIF4A1 C66,-0.0643
7,EIF3M C134 (UniProt Q7L2H7),-0.356
8,EDC4 C4 (UniProt Q6P2E9),0.113
9,DTL C559 (UniProt Q9NZJ0),0.378
10,EDRF1 C1019 (UniProt Q3B7T1),0.243
11,EFL1 C474 (UniProt Q7Z2Z2),-0.0678
12,DYNC2H1 C3778 (UniProt Q8NCM8),0.21
13,EHBP1 C672 (UniProt Q8NDI1),0.0332
14,EIF2B4 C69 (UniProt Q9UI10),-0.167
15,DYNLT3 C8 (UniProt P51808),-0.324
16,EIF2S3B C434,-0.2
17,EDC3 C137 (UniProt Q96F86),0.0577
18,DRG2 C319 (UniProt P55039),-0.333
19,DYNC2H1 C1970 (UniProt Q8NCM8),-0.0404
20,EGFL7 C56 (UniProt Q9UHF1),0.276
